Test results taken from the supplement of paper PMC11732987, “Enantioselective OTUD7B fragment discovery through chemoproteomics screening and high-throughput optimisation” (Communications Chemistry, 2025).
Some of the results follow. The data scatter; read single values as rough.

Chains of the proteins cited; added tags and fusions are not shown. A change or cut given only in a name is not applied to a line headed by its entry. A line that says so, or that is headed by a name, gives the form on record, which may keep a tag or linker. Residues count along the entry.
UniProt Q9Y5B8: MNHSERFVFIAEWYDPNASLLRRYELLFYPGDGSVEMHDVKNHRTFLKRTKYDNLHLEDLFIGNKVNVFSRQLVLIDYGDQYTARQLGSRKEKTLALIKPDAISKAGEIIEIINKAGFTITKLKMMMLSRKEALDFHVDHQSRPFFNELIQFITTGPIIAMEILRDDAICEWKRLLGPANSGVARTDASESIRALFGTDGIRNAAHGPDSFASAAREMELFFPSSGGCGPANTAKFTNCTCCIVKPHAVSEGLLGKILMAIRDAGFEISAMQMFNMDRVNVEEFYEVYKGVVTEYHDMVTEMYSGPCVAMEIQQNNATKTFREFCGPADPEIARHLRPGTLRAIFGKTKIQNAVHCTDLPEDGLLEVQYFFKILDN
UniProt Q9H0A0: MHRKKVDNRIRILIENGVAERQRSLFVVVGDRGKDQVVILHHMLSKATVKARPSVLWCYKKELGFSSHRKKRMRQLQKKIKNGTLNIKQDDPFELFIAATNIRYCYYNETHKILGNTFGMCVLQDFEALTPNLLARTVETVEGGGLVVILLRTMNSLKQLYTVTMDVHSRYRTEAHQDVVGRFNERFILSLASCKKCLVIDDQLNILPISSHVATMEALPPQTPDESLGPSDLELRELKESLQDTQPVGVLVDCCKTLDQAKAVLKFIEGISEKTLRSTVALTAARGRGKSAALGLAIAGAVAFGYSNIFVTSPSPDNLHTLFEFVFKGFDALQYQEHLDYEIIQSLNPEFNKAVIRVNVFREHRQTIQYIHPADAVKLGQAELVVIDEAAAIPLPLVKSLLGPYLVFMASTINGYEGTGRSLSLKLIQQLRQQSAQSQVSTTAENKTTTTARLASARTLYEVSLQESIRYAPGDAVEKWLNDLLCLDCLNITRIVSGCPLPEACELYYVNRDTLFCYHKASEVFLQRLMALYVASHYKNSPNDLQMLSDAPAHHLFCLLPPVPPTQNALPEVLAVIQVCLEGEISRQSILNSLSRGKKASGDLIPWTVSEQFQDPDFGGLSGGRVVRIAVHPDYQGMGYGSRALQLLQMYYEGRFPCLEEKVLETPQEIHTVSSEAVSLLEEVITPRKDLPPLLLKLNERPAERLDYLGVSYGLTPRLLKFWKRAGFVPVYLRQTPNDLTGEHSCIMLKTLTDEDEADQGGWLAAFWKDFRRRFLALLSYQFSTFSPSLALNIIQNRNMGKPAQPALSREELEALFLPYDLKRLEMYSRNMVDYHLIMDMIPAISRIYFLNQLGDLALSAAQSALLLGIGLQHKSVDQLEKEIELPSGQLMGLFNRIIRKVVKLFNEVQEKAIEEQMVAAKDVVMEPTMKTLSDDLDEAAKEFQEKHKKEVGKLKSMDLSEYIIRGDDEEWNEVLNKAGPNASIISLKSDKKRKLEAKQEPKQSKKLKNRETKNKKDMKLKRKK
UniProt P21359: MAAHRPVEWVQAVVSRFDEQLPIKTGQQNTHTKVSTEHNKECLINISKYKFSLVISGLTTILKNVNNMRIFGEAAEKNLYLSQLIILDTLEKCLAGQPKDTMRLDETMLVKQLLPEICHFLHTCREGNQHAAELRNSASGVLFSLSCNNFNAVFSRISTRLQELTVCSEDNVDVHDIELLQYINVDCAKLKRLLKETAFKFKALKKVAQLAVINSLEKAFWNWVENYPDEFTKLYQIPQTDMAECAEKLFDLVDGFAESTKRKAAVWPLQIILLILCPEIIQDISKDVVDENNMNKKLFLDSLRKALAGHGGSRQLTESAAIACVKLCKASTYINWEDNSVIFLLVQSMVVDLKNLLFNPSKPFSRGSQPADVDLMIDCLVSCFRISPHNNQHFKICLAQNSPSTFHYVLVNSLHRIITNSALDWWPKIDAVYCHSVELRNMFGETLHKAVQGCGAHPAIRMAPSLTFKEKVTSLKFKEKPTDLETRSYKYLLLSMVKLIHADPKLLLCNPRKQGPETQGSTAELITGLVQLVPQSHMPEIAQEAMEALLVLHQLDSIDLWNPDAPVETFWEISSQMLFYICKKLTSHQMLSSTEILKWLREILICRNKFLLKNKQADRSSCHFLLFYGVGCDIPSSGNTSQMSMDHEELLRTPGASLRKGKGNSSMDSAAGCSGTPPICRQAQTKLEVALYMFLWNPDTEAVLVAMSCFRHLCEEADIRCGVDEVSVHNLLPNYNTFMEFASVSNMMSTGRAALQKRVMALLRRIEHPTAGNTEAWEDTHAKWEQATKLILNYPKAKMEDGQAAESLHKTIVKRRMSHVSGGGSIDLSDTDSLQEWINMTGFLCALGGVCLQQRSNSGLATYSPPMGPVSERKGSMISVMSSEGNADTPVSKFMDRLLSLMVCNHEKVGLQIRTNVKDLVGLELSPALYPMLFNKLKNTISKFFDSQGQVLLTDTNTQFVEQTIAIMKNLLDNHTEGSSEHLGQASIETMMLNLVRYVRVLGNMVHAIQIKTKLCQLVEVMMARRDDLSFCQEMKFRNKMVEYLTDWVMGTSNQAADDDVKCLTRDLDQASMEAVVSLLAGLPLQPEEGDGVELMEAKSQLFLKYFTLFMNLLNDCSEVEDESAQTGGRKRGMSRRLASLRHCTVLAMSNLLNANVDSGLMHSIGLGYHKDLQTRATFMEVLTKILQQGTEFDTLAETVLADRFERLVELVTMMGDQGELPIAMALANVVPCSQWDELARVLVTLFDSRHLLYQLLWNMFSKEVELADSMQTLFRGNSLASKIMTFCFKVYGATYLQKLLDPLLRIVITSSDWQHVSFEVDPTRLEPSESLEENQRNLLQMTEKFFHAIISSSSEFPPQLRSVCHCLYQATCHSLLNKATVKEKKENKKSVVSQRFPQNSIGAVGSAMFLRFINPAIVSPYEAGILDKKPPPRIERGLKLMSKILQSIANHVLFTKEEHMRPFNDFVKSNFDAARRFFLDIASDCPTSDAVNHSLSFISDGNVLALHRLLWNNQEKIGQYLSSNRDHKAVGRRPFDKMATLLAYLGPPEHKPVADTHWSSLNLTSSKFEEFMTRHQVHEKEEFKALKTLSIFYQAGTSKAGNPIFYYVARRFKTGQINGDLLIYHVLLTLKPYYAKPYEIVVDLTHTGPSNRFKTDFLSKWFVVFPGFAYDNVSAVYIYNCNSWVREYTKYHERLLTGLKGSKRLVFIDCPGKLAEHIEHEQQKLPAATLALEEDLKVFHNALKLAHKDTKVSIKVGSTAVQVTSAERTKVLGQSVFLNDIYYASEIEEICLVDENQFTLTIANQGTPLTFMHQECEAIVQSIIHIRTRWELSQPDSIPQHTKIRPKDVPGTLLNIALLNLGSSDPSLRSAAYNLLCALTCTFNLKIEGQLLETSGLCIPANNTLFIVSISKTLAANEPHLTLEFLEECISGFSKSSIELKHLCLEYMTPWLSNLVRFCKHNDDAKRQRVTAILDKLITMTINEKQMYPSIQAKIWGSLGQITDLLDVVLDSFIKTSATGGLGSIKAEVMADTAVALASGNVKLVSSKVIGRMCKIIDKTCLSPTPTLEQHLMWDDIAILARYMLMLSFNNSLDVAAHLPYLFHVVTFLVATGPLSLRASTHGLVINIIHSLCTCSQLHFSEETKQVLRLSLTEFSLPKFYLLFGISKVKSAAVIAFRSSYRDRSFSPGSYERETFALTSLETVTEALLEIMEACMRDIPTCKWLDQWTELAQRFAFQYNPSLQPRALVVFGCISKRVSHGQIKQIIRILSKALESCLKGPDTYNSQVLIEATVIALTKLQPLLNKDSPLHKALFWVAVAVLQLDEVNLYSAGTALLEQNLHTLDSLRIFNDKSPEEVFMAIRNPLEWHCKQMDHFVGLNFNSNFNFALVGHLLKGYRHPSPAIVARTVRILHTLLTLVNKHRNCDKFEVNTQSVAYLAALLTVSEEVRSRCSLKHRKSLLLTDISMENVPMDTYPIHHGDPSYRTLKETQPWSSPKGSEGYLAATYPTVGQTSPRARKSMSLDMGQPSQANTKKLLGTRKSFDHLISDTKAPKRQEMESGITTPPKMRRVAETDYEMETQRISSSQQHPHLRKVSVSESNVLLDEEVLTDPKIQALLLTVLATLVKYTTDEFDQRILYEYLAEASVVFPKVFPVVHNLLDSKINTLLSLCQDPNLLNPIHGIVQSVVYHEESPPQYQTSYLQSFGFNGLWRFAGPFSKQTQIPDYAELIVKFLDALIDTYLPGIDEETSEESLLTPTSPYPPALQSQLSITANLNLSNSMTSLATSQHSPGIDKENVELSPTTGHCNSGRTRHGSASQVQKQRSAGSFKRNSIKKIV
UniProt Q96D46: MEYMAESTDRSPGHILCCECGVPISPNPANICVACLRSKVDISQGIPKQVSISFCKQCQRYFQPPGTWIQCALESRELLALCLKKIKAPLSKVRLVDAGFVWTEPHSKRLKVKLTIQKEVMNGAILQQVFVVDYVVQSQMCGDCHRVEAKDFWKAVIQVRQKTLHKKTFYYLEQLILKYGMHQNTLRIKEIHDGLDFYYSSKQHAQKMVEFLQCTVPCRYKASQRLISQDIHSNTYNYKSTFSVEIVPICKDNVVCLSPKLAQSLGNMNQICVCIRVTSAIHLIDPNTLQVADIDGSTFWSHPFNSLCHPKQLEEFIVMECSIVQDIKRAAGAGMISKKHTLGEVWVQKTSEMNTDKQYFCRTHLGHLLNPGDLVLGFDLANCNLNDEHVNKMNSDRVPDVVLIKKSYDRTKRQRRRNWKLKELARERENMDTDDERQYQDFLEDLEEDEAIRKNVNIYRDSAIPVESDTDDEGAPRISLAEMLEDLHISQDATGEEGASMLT
UniProt O14777, 518-537: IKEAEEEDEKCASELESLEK
UniProt P30414: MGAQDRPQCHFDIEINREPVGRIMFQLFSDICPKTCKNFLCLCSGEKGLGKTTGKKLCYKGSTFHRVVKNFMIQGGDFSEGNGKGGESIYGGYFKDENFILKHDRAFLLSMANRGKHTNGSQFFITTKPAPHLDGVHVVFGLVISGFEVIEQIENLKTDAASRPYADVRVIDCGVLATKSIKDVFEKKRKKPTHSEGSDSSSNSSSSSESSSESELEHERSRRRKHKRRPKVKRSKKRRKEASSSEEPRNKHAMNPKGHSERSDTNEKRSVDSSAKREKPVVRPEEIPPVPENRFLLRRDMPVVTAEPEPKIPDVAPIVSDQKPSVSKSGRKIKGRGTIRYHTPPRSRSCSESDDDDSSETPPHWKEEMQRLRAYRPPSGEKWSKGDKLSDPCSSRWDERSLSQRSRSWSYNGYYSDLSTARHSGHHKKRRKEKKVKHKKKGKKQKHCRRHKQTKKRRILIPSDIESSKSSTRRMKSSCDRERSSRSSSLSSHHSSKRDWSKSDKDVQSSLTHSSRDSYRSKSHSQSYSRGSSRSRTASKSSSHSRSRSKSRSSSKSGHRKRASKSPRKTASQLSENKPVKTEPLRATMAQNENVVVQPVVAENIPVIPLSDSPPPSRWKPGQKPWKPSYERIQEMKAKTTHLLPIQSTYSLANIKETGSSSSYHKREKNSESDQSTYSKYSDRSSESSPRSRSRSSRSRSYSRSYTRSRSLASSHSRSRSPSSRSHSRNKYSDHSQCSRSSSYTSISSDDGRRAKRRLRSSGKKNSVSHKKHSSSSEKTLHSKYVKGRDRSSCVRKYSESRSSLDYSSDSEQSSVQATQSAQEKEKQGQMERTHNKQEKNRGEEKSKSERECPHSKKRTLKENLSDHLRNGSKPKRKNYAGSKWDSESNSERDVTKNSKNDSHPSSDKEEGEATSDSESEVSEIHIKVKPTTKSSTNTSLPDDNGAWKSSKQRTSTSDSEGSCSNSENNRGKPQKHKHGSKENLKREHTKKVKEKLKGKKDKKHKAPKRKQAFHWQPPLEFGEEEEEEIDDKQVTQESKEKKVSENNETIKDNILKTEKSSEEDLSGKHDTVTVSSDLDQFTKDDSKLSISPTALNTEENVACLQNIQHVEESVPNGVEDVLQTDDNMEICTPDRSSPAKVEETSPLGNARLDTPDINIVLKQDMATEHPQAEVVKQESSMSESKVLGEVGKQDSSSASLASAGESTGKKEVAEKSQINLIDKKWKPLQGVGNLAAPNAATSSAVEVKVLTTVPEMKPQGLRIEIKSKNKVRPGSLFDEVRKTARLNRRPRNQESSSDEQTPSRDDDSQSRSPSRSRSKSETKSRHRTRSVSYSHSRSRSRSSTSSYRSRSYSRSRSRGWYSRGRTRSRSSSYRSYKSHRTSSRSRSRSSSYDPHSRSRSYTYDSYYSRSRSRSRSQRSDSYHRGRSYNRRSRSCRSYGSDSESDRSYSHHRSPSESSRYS
UniProt Q9BYG3: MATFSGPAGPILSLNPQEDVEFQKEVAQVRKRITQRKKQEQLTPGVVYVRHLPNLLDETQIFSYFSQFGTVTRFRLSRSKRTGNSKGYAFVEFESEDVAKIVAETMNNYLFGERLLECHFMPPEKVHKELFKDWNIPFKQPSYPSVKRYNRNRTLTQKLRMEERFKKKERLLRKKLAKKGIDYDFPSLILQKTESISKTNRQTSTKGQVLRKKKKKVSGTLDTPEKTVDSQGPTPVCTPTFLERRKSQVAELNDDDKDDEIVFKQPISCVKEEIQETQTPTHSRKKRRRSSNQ
NDRG2_(C255,C255,C274,C274), as listed by the source: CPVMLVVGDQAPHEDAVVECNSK

Experiments:
[1] = compound: ClCC(=O)N[C@H]1CCCc2ccccc12; assay: log2 mean competition ratio of IA-DTB cysteine labelling (DMSO/compound) (log2 ratio); higher = stronger cysteine engagement by compound; conditions: treatment time: 4 h, cell line lysate: HEK293T
Procedure: (§1)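 IA-DTB competitive cysteine chemoproteomics in HEK293T RIPA lysate. Lysates were treated with compound 29 or 30 at 50 or 200 µM for 4 h, then IA-DTB (500 µM, 1 h), trypsin-digested, NeutrAvidin-enriched and analysed by diaPASEF. Competition ratio = intensity DMSO / intensity compound (n=4 treated, n=64 DMSO); binding: mean log2 CR ≥ 1 and p ≤ 0.05 plus QC filters. Target is the cysteine site.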

[2] = compound: ClCC(=O)N[C@@H]1CCCc2ccccc12; assay: as above; conditions: treatment time: 4 h, cell line lysate: HEK293T
Procedure: as §1

Row | Target | log2 mean competition ratio ([1]; 50 µM) | log2 mean competition ratio ([1]; 200 µM) | log2 mean competition ratio ([2]; 50 µM) | log2 mean competition ratio ([2]; 200 µM)
1 | NCOA3 C197 (UniProt Q9Y6Q9) | 0.55 | -0.0749 | – | –
2 | NME7 C228 (UniProt Q9Y5B8) | -0.121 | 0.218 | -0.266 | 0.0788
3 | NCAPH C239 (UniProt Q15003) | -0.199 | 0.113 | – | –
4 | NDRG2_(C255,C255,C274,C274) | 0.222 | 0.206 | – | –
5 | NAT10 C658 (UniProt Q9H0A0) | -0.0774 | 0.3 | – | –
6 | NHSL1 C162 (UniProt Q5SYE7) | -0.38 | -0.144 | – | –
7 | NELFB C141 (UniProt Q8WX92) | – | -0.432 | – | –
8 | NCDN C158 (UniProt Q9UBB6) | -0.00768 | -0.0731 | – | –
9 | NAT10 C105 (UniProt Q9H0A0) | 0.0975 | -0.251 | – | –
10 | NF1 C324 (UniProt P21359) | -0.484 | -0.209 | – | –
11 | NOP14 C580 (UniProt P78316) | -0.14 | -0.0737 | – | –
12 | NGLY1 C484 (UniProt Q96IV0) | – | -0.17 | – | –
13 | NOL6 C665 (UniProt Q9H6R4) | -0.239 | 0.102 | -0.012 | 0.0444
14 | NELFA_(C131,C131,C141,C141) (UniProt Q9H3P2) | 0.255 | 0.354 | – | –
15 | NF1 C1032 (UniProt P21359) | 0.00729 | 0.239 | -0.119 | 0.428
16 | NEDD4;NEDD4L C1286;(C942) | 0.489 | -0.126 | 0.535 | 0.28
17 | NLRX1 C310 (UniProt Q86UT6) | – | 0.0472 | – | -0.0529
18 | NCDN C22 (UniProt Q9UBB6) | 0.1 | 0.144 | – | –
19 | NMD3 C55 (UniProt Q96D46) | 0.432 | 0.197 | – | –

Look-ups from the entries so far.
Entry for NAT10 C658 (UniProt Q9H0A0) under log2 mean competition ratio ([1]; 200 µM): 0.3
Entry for NLRX1 C310 (UniProt Q86UT6) under log2 mean competition ratio ([2]; 200 µM): -0.0529

The listing continues:

Row | Target | log2 mean competition ratio ([1]; 50 µM) | log2 mean competition ratio ([1]; 200 µM) | log2 mean competition ratio ([2]; 50 µM) | log2 mean competition ratio ([2]; 200 µM)
20 | NHSL1 C524 (UniProt Q5SYE7) | 0.169 | 0.308 | -0.026 | 0.318
21 | NIBAN2 C405 (UniProt Q96TA1) | 0.139 | 0.0761 | 0.0434 | 0.0582
22 | NEK9 C506 (UniProt Q8TD19) | -0.0742 | 0.1 | -0.0184 | 0.031
23 | NOL11 C578 (UniProt Q9H8H0) | 0.00757 | 0.074 | – | –
24 | NDC80 C528 (UniProt O14777) | -0.474 | -0.244 | -0.56 | -0.0935
25 | NISCH C848 (UniProt Q9Y2I1) | 0.13 | 0.0176 | – | –
26 | NAV1 C1651 (UniProt Q8NEY1) | -0.106 | -0.0926 | -0.104 | -0.0747
27 | NOP56 C211 (UniProt O00567) | 0.298 | 0.283 | – | –
28 | NEK4 C466 (UniProt P51957) | 0.168 | 0.264 | 0.11 | 0.00587
29 | NKTR C393 (UniProt P30414) | 0.0635 | 0.35 | – | –
30 | NCBP1 C36 (UniProt Q09161) | -0.443 | 0.26 | – | –
31 | NCAPD3 C15 (UniProt P42695) | -0.0208 | -0.181 | – | –
32 | NDUFA11 C18 (UniProt Q86Y39) | 0.0527 | 0.425 | – | –
33 | NOP58 C439 (UniProt Q9Y2X3) | 0.15 | -0.0107 | – | –
34 | NBEA C2007 (UniProt Q8NFP9) | 0.109 | -0.183 | – | –
35 | NOP14 C457 (UniProt P78316) | 0.175 | -0.529 | – | –
36 | NFKBIB C6 (UniProt Q15653) | 0.0643 | 0.552 | – | –
37 | NDUFV1 C125 | 0.215 | 0.119 | – | –
38 | NDUFA10 C67 (UniProt O95299) | 0.0761 | 0.164 | – | –

Row | Target | log2 mean competition ratio ([1]; 50 µM) | log2 mean competition ratio ([1]; 200 µM) | log2 mean competition ratio ([2]; 50 µM) | log2 mean competition ratio ([2]; 200 µM)
39 | NBR1 C669 (UniProt Q14596) | -0.247 | 0.135 | – | –
40 | NET1 C556 (UniProt Q7Z628) | 0.249 | 0.278 | – | –
41 | NKTR C738 (UniProt P30414) | -0.0118 | 0.000625 | – | –
42 | NCAPD3 C361 (UniProt P42695) | -0.405 | -0.817 | – | –
43 | NCK2 C297 (UniProt O43639) | -0.105 | 0.159 | – | –
44 | NOSIP C185 (UniProt Q9Y314) | -0.0781 | 0.0553 | – | –
45 | NECTIN2 C446 (UniProt Q92692) | -0.143 | 0.204 | – | –
46 | NIPBL C1754 (UniProt Q6KC79) | 0.171 | 0.685 | – | –
47 | NIFK C237 (UniProt Q9BYG3) | -0.098 | 0.254 | – | –
48 | NIFK C118 (UniProt Q9BYG3) | -0.758 | -0.172 | – | –
49 | NCL C543 | 0.00663 | -0.172 | – | –
50 | NF1 C1711 (UniProt P21359) | -0.0263 | -0.124 | – | –
51 | NCAPG C509 (UniProt Q9BPX3) | -0.131 | -0.0988 | – | –
52 | NDC1 C369 (UniProt Q9BTX1) | -0.472 | -0.316 | – | –
53 | NCAPH C309 (UniProt Q15003) | -0.216 | 0.0684 | – | –
54 | NCK1 C340 (UniProt P16333) | 0.218 | -0.285 | – | –
55 | NCOA3 C627 (UniProt Q9Y6Q9) | 0.0244 | 0.0858 | – | –
56 | NFX1 C32 (UniProt Q12986) | -0.0994 | 0.103 | – | –
